This assay concerns the target T1, Takeda G protein-coupled receptor 5 (mouse (endogenous in mouse liver tissue)) (UniProt Q80SS6).
T1 sequence: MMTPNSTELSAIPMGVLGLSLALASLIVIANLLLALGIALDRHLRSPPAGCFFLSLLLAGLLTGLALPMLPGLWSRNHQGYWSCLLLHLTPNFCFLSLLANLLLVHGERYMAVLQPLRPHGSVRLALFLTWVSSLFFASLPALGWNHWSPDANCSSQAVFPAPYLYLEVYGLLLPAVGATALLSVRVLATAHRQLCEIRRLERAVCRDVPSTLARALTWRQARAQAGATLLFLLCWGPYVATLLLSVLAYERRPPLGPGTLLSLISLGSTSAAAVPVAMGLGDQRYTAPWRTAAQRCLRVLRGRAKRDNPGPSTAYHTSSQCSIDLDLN
In words: co-IP; co-immunoprecipitation with anti-TGR5 from liver tissue of Mdr2+/+, Mdr2-/- and hP-MSC-treated Mdr2-/- mice; Western blotting of TGR5 and Pellino3; endogenous proteins.

Results on one molecule are retold here after PMC10433880.

No constants are given. Whether binding was seen depends on the method and setting. Binding seen in cells or lysates may run through a third protein. Some binding calls cover weakened binding; strength is not graded here.

B1: Pellino3 (protein, UniProt Q8BXR6 1-445)
chain: MVLEGNPDVGSPRTSDLQHPGSQGSCILSCPGEEALAGEEPIKYGELIVLGYNGCLASGDKGRRRSRLALSRRPHANGVKPDVMHHISTPLVSKALSNRGQHSISFTLSRSHSVIVEYTHDSDKDMFQIGRSTENMIDFVVTDTSPGGGATEGPSAQSTISRYACRILCDRRPPYTARIYAAGFDASSNIFLGERAAKWRTPDGLMDGLTTNGVLVMHPAGGFSEDSAPGVWREISVCGNVYTLRDSRSAQQRGKLVENESNVLQDGSLIDLCGATLLWRTPAGLLRAPTLKQLEAQRQEANAARPQCPVGLSTLAFPSPARGRTAPDKQQPWVYVRCGHVHGYHGWGCRRERGPQERECPLCRLVGPYVPLWLGQEAGLCLDPGPPSHAFAPCGHVCSEKTARYWAQTPLPHGTHAFHAACPFCGAWLTGELGCVRLIFQGPLD
Consider B1, for which the binding entry is on record as “binds”.
